This is one part of the list. Values are raw readings; no control value is given beside them.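 Primary screen: polymyxin B was added at a level permeabilizing Salmonella outer membranes while sparing inner membranes. DMSO wells, both with and without polymyxin B, established maximum growth. Plate-to-plate variation meant each plate was ranked on its own, and the lowest-OD600 compounds were selected as hits.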
Test system: Salmonella enterica serovar Typhimurium SL1344
Assay: bacterial growth OD600 after 18 h with compound and polymyxin B; higher = more bacterial growth (less inhibition)
Details: 50 µM, Mueller-Hinton broth

SMILES	bacterial growth OD600 (polymyxin B 0.75 µg/mL)	bacterial growth OD600 (polymyxin B 1 µg/mL)
CNC(=O)c1cn(C2CCCCC2)cc(C(=O)N2CCN(C/C=C/c3ccccc3)CC2)c1=O	0.859	–
O=C(c1cc(COc2ccccc2)[nH]n1)N1CCN(C2CCCC2)CC1	–	0.928
C=C(C)CNC(=O)c1cc(CN2CCC(Cc3ccccc3)CC2)on1	–	0.981
Cc1cccc(N2CCN(c3nc4nonc4nc3N3CCOCC3)CC2)n1	0.777	–
CSc1cccc(CNC2CCCN(Cc3ccccc3F)C2)c1 (stereo unspecified)	0.82	–
O=C(CSc1ccc2nnc(-c3cccnc3)n2n1)N1CCC(Sc2ccc(F)cc2)CC1	0.91	–
CN(c1ccc(-c2nc(COc3ccccc3)no2)cn1)C1CCOCC1	–	0.867
COCc1ccc(C(=O)N2CCc3onc(-c4cccc(F)c4)c3C2)s1	0.002	–
O=C(Nc1ccccc1Cl)Nc1ccnn1C1CCN(C(=O)C2CC2)CC1	0.914	–
Cc1nc(CN(C)C(=O)c2cnn(-c3ncc(C)c(-c4ccc(F)cc4)n3)c2C(C)C)cs1	0.868	–
CC(C)S(=O)(=O)c1ncc(CN(C)C2CCOCC2)n1CCc1ccccc1	–	1
OCC1(Cc2ccc(F)cc2)CCCN(Cc2cccc(Cl)c2)C1 (stereo unspecified)	0.01	–
COc1ccc(CCNC(=O)CCC2(Cc3ccc(F)c(OC)c3)CCC(=O)N2)c(OC)c1 (stereo unspecified)	0.835	–
c1cc(CN2CCCC2)ccc1CNc1nncc(-c2ccc3c(c2)OCO3)n1	0.729	–
CCNC(=O)N1CCCC(Cc2ccc(F)cc2F)(C(=O)OCC)C1 (stereo unspecified)	–	0.836
COc1ccc(CN2CCC(n3nccc3NC(=O)C3CC3)CC2)c(Cl)c1OC	–	0.812
Cc1ccccc1N1CCN(C(=O)c2ccc(OC3CCN(C(=O)C4CC4)CC3)cc2)CC1	–	0.608
O=C(CCC1CCN(Cc2ccc(Cl)s2)CC1)N1CCN(c2ccccc2)CC1	–	0.892
CCOC(=O)N1CCN(Cc2nc(-c3ccc(C)s3)oc2C)CC1	0.758	–
C[C@@H]1CN(C2(C(=O)NCCc3cccnc3)Cc3ccccc3C2)C[C@H](C)O1	0.78	–
CCN1CCN(C2(C(=O)N(C)CC(O)c3ccccc3)Cc3ccccc3C2)CC1 (stereo unspecified)	0.833	–

SMILES	bacterial growth OD600 (polymyxin B 0.75 µg/mL)	bacterial growth OD600 (polymyxin B 1 µg/mL)
CC(C)n1cc(C(=O)NCc2ccccc2)c(=O)c(C(=O)N2CCN(c3ccc(F)cc3)CC2)c1	0.715	–
COc1ccc(NC(=O)CCC2CCCN(C(=O)CCn3cnnn3)C2)cc1Cl (stereo unspecified)	–	0.989
COc1cc(C)ccc1OCc1nc(C(=O)N(C)C2CCCCC2)co1	0.631	–
CCN(CC)C(=O)C1CCCN(Cc2nc(C3(c4ccc(C)cc4)CCCC3)no2)C1 (stereo unspecified)	–	0.471
COc1ccc(CCN2CCC(CN(C)C(=O)C3=C(C)OCCO3)CC2)cc1	–	0.982
COc1cc(CC2(CCC(=O)NCCC3=CC[C@H]4C[C@@H]3C4(C)C)CCC(=O)N2)ccc1F (stereo partly specified)	0.895	–
CC(CCn1cccn1)N1CCc2onc(-c3ccc4c(c3)OCO4)c2C1 (stereo unspecified)	0.805	–
CC(C)S(=O)(=O)c1ncc(CN(C)CC2CCOCC2)n1CCc1ccccc1	–	1.21
COc1ccc(CCNC(=O)CCN2Cc3ccccc3OC(c3ccccc3F)C2)cc1OC (stereo unspecified)	0.615	–
CC(C)N(Cc1nccn1C)C(=O)c1cc(COc2ccccc2F)[nH]n1	0.891	–
CSc1ncccc1C(=O)N1CCCC(Nc2ccc(F)c(F)c2)C1 (stereo unspecified)	–	0.792
COc1ccc(CN2CCN(Cc3cccc(O)c3)CC2CCO)c(C)c1C (stereo unspecified)	–	0.859
C=CC[C@@H]1CC=C[C@@H](C)N1Cc1nc(-c2ccc3c(c2)OCO3)no1	–	0.822
CCc1nc(C)c(CN(C)CC2CCCN(CCc3ccccc3C)C2)[nH]1 (stereo unspecified)	–	1
O=C(CCC1(Cc2ccc(-c3ccccc3)cc2)CCC(=O)N1)NCCc1ccccc1F (stereo unspecified)	0.003	–
CCOc1ccccc1CN1CCN(Cc2cccc3c2OCO3)CC1CCO (stereo unspecified)	–	1.16
C=C(C)CNC(=O)c1coc(COc2cccc(OC)c2)n1	–	0.92
CCN(CCn1cccn1)Cc1cn(C)nc1-c1cccc(Cl)c1	–	0.814
COc1cc(=O)n2c(c1C(=O)NC(C)c1ccco1)CCN(Cc1c(C)nc3sccn13)CC2 (stereo unspecified)	0.907	–
O=C(C1CCC1)N1CC[C@@H](N2CCN(CCc3ccccc3)CC2)[C@H](O)C1	–	0.943

Part of the list above, set out differently.
SMILES | bacterial growth OD600 (polymyxin B 0.75 µg/mL) | bacterial growth OD600 (polymyxin B 1 µg/mL)
COc1ccc(CCN2CCC(CN(C)C(=O)C3=C(C)OCCO3)CC2)cc1 | – | 0.982
CCOc1ccccc1CN1CCN(Cc2cccc3c2OCO3)CC1CCO (stereo unspecified) | – | 1.16
C=C(C)CNC(=O)c1coc(COc2cccc(OC)c2)n1 | – | 0.92

— the supplement of paper PMC12889115
